These are yes or no findings as the source states them, for the method shown. Binding seen in cells or lysates may run through a third protein. Binding can be weak; no strength is given.

By UniProt entry, the sequences of proteins in these tests, tags left out. Where a name states a change or a piece, a line headed by the entry shows the natural chain unless it says otherwise.
UniProt A0A8F2YJE5: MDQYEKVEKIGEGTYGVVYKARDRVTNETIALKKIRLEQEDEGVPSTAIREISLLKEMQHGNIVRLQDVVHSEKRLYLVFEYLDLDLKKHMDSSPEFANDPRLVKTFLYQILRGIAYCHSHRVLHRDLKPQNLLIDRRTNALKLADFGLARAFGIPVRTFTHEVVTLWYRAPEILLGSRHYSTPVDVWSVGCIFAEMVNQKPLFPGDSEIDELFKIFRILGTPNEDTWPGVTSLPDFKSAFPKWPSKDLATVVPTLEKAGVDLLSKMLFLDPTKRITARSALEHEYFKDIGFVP
UniProt A0A8F3BRK2: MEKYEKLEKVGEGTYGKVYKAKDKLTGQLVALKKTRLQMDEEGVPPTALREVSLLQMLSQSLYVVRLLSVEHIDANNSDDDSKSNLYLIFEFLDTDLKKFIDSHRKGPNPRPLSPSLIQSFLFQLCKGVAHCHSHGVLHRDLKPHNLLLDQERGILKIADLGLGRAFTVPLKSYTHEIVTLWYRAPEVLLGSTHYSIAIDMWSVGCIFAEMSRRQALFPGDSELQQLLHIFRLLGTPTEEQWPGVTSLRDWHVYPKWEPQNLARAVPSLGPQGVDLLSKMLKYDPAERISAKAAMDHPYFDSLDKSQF
UniProt A0A8F3BS08: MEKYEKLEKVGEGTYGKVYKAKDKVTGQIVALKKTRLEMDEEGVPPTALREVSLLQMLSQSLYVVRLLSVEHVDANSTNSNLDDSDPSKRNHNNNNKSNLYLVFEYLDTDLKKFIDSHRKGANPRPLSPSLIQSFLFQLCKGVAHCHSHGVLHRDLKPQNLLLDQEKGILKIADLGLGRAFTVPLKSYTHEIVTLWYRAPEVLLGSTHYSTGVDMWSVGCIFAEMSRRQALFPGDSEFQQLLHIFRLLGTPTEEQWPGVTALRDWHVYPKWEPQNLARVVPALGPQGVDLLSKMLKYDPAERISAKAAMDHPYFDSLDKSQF
UniProt A0A8F3BPS4: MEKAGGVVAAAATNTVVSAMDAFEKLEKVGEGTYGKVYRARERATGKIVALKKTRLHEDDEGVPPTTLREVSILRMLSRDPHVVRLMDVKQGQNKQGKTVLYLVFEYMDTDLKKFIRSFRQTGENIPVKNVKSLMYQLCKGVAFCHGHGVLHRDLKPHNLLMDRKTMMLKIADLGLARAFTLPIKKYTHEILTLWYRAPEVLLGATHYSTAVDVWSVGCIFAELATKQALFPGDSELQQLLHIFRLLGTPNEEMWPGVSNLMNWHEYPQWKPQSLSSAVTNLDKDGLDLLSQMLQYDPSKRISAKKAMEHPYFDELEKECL
UniProt A0A8F3BQA3: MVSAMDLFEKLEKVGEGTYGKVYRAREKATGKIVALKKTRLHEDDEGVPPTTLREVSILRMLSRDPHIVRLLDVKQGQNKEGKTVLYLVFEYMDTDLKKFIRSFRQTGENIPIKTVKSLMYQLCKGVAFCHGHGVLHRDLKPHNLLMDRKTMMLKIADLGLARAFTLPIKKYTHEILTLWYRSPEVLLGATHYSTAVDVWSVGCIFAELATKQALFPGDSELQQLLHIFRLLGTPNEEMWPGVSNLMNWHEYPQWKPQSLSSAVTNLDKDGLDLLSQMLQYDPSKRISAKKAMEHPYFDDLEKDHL
UniProt A0A8F2YJ43: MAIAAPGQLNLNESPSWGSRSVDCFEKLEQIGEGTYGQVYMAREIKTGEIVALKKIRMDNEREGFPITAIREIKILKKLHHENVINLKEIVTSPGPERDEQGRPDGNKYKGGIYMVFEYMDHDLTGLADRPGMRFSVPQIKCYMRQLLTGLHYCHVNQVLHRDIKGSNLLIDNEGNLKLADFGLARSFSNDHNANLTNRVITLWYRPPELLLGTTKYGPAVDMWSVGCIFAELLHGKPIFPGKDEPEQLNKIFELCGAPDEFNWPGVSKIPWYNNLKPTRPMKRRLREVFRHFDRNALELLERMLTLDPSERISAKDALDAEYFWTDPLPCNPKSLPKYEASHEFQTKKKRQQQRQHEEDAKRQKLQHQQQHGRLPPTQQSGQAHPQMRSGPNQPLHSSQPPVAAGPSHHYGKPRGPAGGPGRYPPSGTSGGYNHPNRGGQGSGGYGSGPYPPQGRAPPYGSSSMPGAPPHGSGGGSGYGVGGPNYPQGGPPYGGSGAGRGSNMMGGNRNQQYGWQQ
UniProt A0A8F2YJ19: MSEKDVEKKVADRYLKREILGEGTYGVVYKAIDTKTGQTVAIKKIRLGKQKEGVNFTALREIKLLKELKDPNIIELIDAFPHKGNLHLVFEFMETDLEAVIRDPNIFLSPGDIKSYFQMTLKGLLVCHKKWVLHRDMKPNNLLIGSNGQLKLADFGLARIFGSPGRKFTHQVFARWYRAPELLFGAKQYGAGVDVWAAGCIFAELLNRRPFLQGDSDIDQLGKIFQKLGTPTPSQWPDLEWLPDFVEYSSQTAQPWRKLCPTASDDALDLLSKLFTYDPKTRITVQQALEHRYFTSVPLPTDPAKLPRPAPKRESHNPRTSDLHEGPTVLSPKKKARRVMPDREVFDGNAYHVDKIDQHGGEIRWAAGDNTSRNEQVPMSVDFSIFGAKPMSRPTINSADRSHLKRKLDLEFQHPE
UniProt A0A8F2YJ26: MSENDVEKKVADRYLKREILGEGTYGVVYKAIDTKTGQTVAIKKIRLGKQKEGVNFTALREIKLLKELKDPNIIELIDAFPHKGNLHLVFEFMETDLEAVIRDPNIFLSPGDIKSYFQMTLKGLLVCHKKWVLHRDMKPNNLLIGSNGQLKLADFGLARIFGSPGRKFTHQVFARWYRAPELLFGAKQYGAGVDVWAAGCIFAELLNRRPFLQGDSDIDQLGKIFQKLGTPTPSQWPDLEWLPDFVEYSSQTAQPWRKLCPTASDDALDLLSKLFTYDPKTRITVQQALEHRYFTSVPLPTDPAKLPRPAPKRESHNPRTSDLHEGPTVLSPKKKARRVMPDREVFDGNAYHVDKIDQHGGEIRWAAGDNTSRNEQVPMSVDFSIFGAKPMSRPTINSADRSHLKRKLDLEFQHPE
UniProt A0A8F2YJ49: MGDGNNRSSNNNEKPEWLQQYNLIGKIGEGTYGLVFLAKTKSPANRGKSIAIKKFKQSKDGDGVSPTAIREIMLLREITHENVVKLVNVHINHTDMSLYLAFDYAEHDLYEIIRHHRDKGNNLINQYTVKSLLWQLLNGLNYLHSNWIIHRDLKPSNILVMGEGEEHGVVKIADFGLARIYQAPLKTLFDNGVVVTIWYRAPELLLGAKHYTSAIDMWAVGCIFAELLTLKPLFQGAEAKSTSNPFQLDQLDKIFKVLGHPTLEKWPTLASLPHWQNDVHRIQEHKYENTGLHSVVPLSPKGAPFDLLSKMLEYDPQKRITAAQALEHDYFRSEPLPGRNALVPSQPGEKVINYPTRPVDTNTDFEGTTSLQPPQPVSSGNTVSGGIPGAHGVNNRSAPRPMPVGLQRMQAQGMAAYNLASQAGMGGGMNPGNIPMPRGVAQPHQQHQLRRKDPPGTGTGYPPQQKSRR
UniProt A0A8F3BQL1: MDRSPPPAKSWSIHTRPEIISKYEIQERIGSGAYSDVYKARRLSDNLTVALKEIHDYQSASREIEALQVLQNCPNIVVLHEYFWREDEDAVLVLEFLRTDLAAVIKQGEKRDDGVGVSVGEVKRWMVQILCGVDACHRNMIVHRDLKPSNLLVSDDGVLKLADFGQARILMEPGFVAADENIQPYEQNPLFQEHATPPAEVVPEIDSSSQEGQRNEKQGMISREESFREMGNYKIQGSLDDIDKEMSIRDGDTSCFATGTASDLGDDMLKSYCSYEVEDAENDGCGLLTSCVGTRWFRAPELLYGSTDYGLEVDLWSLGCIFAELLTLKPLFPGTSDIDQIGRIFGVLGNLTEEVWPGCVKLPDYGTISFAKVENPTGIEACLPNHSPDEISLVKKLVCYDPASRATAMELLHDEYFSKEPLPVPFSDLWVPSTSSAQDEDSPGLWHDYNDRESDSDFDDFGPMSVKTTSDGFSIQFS
UniProt A0A8F2YJH9: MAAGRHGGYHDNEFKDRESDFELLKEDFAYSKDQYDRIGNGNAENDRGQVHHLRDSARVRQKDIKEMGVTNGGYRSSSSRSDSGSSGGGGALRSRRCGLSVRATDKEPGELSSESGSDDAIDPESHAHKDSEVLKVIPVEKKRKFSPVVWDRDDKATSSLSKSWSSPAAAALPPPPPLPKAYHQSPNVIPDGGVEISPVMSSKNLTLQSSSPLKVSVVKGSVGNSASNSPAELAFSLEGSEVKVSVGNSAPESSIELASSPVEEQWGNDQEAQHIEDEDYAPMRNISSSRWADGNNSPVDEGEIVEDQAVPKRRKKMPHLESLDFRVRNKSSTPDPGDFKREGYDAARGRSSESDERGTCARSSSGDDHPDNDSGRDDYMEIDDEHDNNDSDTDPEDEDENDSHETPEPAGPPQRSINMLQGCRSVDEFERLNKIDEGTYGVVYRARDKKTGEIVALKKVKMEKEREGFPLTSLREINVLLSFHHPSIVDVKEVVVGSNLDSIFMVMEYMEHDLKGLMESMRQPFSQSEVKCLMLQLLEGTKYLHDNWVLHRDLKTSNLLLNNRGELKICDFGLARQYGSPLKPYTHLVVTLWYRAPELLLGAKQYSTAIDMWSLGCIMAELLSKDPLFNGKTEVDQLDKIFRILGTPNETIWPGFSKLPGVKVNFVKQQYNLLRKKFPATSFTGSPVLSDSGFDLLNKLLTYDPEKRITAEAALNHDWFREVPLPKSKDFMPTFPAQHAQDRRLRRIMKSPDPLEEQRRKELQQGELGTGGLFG
UniProt A0A8F2YJJ4: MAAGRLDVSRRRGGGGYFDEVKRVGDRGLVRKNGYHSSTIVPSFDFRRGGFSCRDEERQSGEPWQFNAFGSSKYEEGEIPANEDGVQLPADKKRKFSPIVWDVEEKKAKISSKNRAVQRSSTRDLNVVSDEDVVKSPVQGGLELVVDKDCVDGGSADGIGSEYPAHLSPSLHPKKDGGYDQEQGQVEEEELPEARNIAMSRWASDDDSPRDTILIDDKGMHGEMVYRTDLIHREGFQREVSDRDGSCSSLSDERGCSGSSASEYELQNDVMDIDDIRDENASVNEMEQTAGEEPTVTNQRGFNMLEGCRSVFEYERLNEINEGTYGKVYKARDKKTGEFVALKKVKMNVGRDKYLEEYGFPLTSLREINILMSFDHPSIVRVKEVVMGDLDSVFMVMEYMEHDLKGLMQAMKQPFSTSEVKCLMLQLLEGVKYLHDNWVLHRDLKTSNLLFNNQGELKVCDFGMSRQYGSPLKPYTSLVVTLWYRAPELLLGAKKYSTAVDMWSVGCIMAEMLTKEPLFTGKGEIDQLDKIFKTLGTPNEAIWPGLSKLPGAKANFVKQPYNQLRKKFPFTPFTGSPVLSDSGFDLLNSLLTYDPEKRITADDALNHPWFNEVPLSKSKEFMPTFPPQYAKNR

The target in this experiment is YFP^C-PtoCYCD3;3 (Populus tomentosa). In words: split reporter; BiFC: YFP^N-PtoCDKs (pSPYNE(R)173) and YFP^C-PtoCYCD (pSPYCE(MR)) co-expressed in tobacco leaf lower epidermal cells by Agrobacterium GV3101; confocal microscopy after 48 h, excitation 488 nm; NLS-mCherry as nuclear marker.
Consider “YFP^N-PtoCDKA;1 (from UniProt A0A8F2YJE5)”, for which the binding entry was “binds”.

As for “YFP^N-PtoCDKB1;1 (from UniProt A0A8F3BRK2)”, the binding entry is “binds”.

Take “YFP^N-PtoCDKB1;2 (from UniProt A0A8F3BS08)”: the binding entry is given as “binds”.

For the substance “YFP^N-PtoCDKB2;1 (from UniProt A0A8F3BPS4)”, the binding entry was “binds”.

In the case of “YFP^N-PtoCDKB2;2 (from UniProt A0A8F3BQA3)”, the binding entry was “binds”.

With “YFP^N-PtoCDKC;2 (from UniProt A0A8F2YJ43)”, the binding entry is “binds”.

Consider “YFP^N-PtoCDKD;1 (from UniProt A0A8F2YJ19)”, for which the binding result is on record as “binds”.

Consider “YFP^N-PtoCDKD;2 (from UniProt A0A8F2YJ26)”, for which the binding entry was “binds”.

In the case of “YFP^N-PtoCDKE;2 (from UniProt A0A8F2YJ49)”, the binding entry is on record as “binds”.

With “YFP^N-PtoCDKF;1 (from UniProt A0A8F3BQL1)”, the binding entry was “binds”.

Consider “YFP^N-PtoCDKG;3 (from UniProt A0A8F2YJH9)”, for which the binding result is reported as “binds”.

On to “YFP^N-PtoCDKG;4 (from UniProt A0A8F2YJJ4)”, for which the binding result was “binds”.

The values above are taken from PMC9547009.
